Test results taken from patent US20260284208A1, “SYSTEM” (Oxford University Innovation Limited, priority 2023, published 2026).
The source gives many values for each of these; only a part stands here.

Test system: library of 8,380 IKZF3 degrons (ZF-eGFP/mCherry reporter) in Jurkat cells
Experiment: Pooled library screen (FACS, NGS, limma voom LogFC of positive vs negative read counts)
Format: cell-based, human
Procedure: A library of 8,380 IKZF3 degrons was cloned into pLVX-Sprout to create the eGFP/mCherry protein degradation reporter plasmid pool. A lentivirus pool was then generated using the Lenti-X lentiviral vector production method.
Jurkat cells were transduced at a multiplicity of infection of <0.3 with the lentivirus vector library in order to maximise the number of cells with a single integration. Transductions were carried out in 6 well TC-treated cell culture dishes (Falcon) with 3×10^6 cells per well. Cells were incubated for 2 days at 37° C. and 5% CO2 before the supernatant was removed and replaced with fresh media. 6 days post-transduction, mCherry+ cells were isolated via FACS using the FACS Aria Fusion (BD) in a buffer containing PBS (Gibco), 2 mM EDTA (Gibco), 25 mM HEPES (Sigma) and 1% BSA (Sigma). 8 days later, cells were treated with DMSO or a thalidomide analog for 18 hours at 37° C. and 5% CO2. mCherry+GFPlow and NOT(mCherry+GFPlow) cells were sorted by FACS using the FACS Aria Fusion (BD). DMSO treated cells were used to set the mCherry+GFPlow gate and dead cells were excluded from sorting by staining cells with 1 μg/mL DAPI (ThermoFisher). gDNA was isolated using the Maxwell RSC 48 (Promega). gDNA from cells that were unsorted and untreated were also isolated to determine the library representation on the day of compound treatment. Throughout the screen >600× coverage of the library was maintained. 3 biological replicates were carried out with a new transduction taking place each time.
A two-step PCR was used where the first PCR (PCR1) amplified the integrated degron sequence from gDNA and the second PCR (PCR2) added Illumina adaptors and barcodes to permit multiplexing. See Supp F for PCR1 and PCR2 primers. Q5 Hot Start High-Fidelity 2× Master Mix (New England Biolabs) was used for both PCRs. Sufficient gDNA was amplified in PCR1 in order to maintain >600× coverage and amplicons were purified using solid phase reversible immobilization (SPRI) beads (Beckman Coulter). Purified PCR1 products were analysed on the Tapestation 4200 (Agilent) to confirm purity prior to proceeding to PCR2. Sufficient PCR1 product was amplified in PCR2 in order to maintain >600× coverage and amplicons were run on a 2% agarose TAE gel. Target bands were excised and purified using the NucleoSpin Gel and PCR Clean-up Kit (Machery Nagel). Amplicons were analysed on the Tapestation 4200 and quantified using Qubit dsDNA HS kit (ThermoFisher). PCR products were pooled and sequenced as paired-reads on the NovaSeq (Illumina) using a SP2 200 cycles kit (Illumina).
Count distributions, percentage of read mapping, library coverage and replicate correlation per sample were assessed for QC purposes.
To carry out the library screen, we used the same plasmid construct as in our earlier flow cytometry assays, but pooling all 8,380 mutants together into one Jurkat population, ensuring a copy number of one plasmid per cell (FIG. 4B). […] These GFP-negative cells were then separated from the remaining GFP-positive population using fluorescence activated cell sorting (FACS). These two populations were then sequenced and the relative abundance of every mutant in both populations compared to provide a log FC value for each mutant sequence. This value indicated how frequently a sequence is observed in the GFP-negative population relative to the GFP-positive population, and therefore how effective a degron it is for that particular IMID compound.

## O=C1CCC(N2C(=O)c3ccc(N4CCOCC4)cc3C2=O)C(=O)N1 (stereo not shown) [B03]
Degron-ID 473, SEQ ID NO 4279, 46F_47C_49P_50V_52G_53A_54Q_55F_67L_
  B03_logFC: 2.247
Degron-ID 961, SEQ ID NO 3743, 46F_47F_49D_50I_52G_53A_54C_55F_67L_
  B03_logFC: 3.143
Degron-ID 968, SEQ ID NO 3735, 46F_47F_49D_50I_52G_53A_54K_55F_67L_
  B03_logFC: 3.148
Degron-ID 971, SEQ ID NO 3697, 46F_47F_49D_50I_52G_53A_54N_55F_67L_
  B03_logFC: 3.228
Degron-ID 972, SEQ ID NO 3727, 46F_47F_49D_50I_52G_53A_54P_55F_67L_
  B03_logFC: 3.157
Degron-ID 973, SEQ ID NO 3676, 46F_47F_49D_50I_52G_53A_54Q_55F_67L_
  B03_logFC: 3.285
Degron-ID 974, SEQ ID NO 3647, 46F_47F_49D_50I_52G_53A_54R_55F_67L_
  B03_logFC: 3.355
Degron-ID 975, SEQ ID NO 3811, 46F_47F_49D_50I_52G_53A_54S_55F_67L_
  B03_logFC: 2.989
Degron-ID 976, SEQ ID NO 3943, 46F_47F_49D_50I_52G_53A_54T_55F_67L
  B03_logFC: 2.769
Degron-ID 1013, SEQ ID NO 3722, 46F_47F_49D_50V_52G_53A_54Q_55F_67L_
  B03_logFC: 3.163
Degron-ID 1014, SEQ ID NO 3734, 46F_47F_49D_50V_52G_53A_54R_55F_67L_
  B03_logFC: 3.151
Degron-ID 1016, SEQ ID NO 4271, 46F_47F_49D_50V_52G_53A_54T_55F_67L_
  B03_logFC: 2.263
Degron-ID 1023, SEQ ID NO 3757, 46F_47F_49E_50I_52G_53A_54E_55F_67L_
  B03_logFC: 3.114
Degron-ID 1024, SEQ ID NO 3935, 46F_47F_49E_50I_52G_53A_54F_55F_67L
  B03_logFC: 2.781
Degron-ID 1025, SEQ ID NO 3864, 46F_47F_49E_50I_52G_53A_54G_55F_67L
  B03_logFC: 2.896
Degron-ID 1026, SEQ ID NO 3658, 46F_47F_49E_50I_52G_53A_54H_55F_67L_
  B03_logFC: 3.33
Degron-ID 1029, SEQ ID NO 3862, 46F_47F_49E_50I_52G_53A_54L_55F_67L
  B03_logFC: 2.907
Degron-ID 1030, SEQ ID NO 3752, 46F_47F_49E_50I_52G_53A_54M_55F_67L_
  B03_logFC: 3.121
Degron-ID 1032, SEQ ID NO 3651, 46F_47F_49E_50I_52G_53A_54P_55F_67L_
  B03_logFC: 3.341
Degron-ID 1039, SEQ ID NO 3906, 46F_47F_49E_50I_52G_53A_54Y_55F_67L
  B03_logFC: 2.842
Degron-ID 1063, SEQ ID NO 3779, 46F_47F_49E_50V_52G_53A_54E_55F_67L_
  B03_logFC: 3.046
Degron-ID 1066, SEQ ID NO 3749, 46F_47F_49E_50V_52G_53A_54H_55F_67L_
  B03_logFC: 3.124
Degron-ID 1067, SEQ ID NO 3797, 46F_47F_49E_50V_52G_53A_54I_55F_67L_
  B03_logFC: 3.017
Degron-ID 1069, SEQ ID NO 4038, 46F_47F_49E_50V_52G_53A_54L_55F_67L
  B03_logFC: 2.626
Degron-ID 1070, SEQ ID NO 3742, 46F_47F_49E_50V_52G_53A_54M_55F_67L_
  B03_logFC: 3.145
Degron-ID 1072, SEQ ID NO 3712, 46F_47F_49E_50V_52G_53A_54P_55F_67L_
  B03_logFC: 3.184
Degron-ID 1092, SEQ ID NO 3675, 46F_47F_49N_50I_52G_53A_54P_55F_67L_
  B03_logFC: 3.287
Degron-ID 1093, SEQ ID NO 3920, 46F_47F_49N_50I_52G_53A_54Q_55F_67L
  B03_logFC: 2.812
Degron-ID 1140, SEQ ID NO 3806, 46F_47F_49P_50I_52G_53A_54A_55F_67L_
  B03_logFC: 2.999
Degron-ID 1143, SEQ ID NO 3907, 46F_47F_49P_50I_52G_53A_54E_55F_67L
  B03_logFC: 2.84
Degron-ID 1145, SEQ ID NO 4326, 46F_47F_49P_50I_52G_53A_54G_55F_67L_
  B03_logFC: 2.158
Degron-ID 1146, SEQ ID NO 3911, 46F_47F_49P_50I_52G_53A_54H_55F_67L
  B03_logFC: 2.831
Degron-ID 1148, SEQ ID NO 3857, 46F_47F_49P_50I_52G_53A_54K_55F_67L
  B03_logFC: 2.914
Degron-ID 1154, SEQ ID NO 3649, 46F_47F_49P_50I_52G_53A_54R_55F_67L_
  B03_logFC: 3.35
Degron-ID 1155, SEQ ID NO 3717, 46F_47F_49P_50I_52G_53A_54S_55F_67L_
  B03_logFC: 3.179
Degron-ID 1157, SEQ ID NO 3816, 46F_47F_49P_50I_52G_53A_54V_55F_67L_
  B03_logFC: 2.98
Degron-ID 1159, SEQ ID NO 3848, 46F_47F_49P_50I_52G_53A_54Y_55F_67L
  B03_logFC: 2.926
Degron-ID 1180, SEQ ID NO 3859, 46F_47F_49P_50V_52G_53A_54A_55F_67L
  B03_logFC: 2.907
Degron-ID 1181, SEQ ID NO 3653, 46F_47F_49P_50V_52G_53A_54C_55F_67L_
  B03_logFC: 3.339
Degron-ID 1184, SEQ ID NO 4299, 46F_47F_49P_50V_52G_53A_54F_55F_67L_
  B03_logFC: 2.222
Degron-ID 1185, SEQ ID NO 4414, 46F_47F_49P_50V_52G_53A_54G_55F_67L_
  B03_logFC: 2.026
Degron-ID 1186, SEQ ID NO 3908, 46F_47F_49P_50V_52G_53A_54H_55F_67L
  B03_logFC: 2.837
Degron-ID 1187, SEQ ID NO 4376, 46F_47F_49P_50V_52G_53A_54I_55F_67L_
  B03_logFC: 2.075
